Measurements taken from PubChem BioAssay AID248 (DTP/NCI, 2004).
The list does not hold the whole screen: it gathers tests that were run many times, whatever their T/C, doses with no T/C, and many T/C values between a quarter and a half above the control. Other doses and runs of a compound stand elsewhere. T/C gives the treated animals as a percentage of the vehicle group. Some entries give survivors of the animals treated and no T/C: the source holds a T/C of zero for them, seemingly a mark for toxic or unscored doses. Some survivor counts are full or nearly so, which does not show that the dose was tolerated: the source hardly ever lists a survival T/C far under the control, and the zero likely stands for such cases as well. Survivors were counted at the toxicity check, usually on the fifth day, unless a day is given; later deaths do not show. Schedules are NCI's codes, taken here to give the interval after Q, in days (D) or hours (H), and the number of doses after X. Some entries were tested several times; their values stand side by side, smallest first. Where survival is the endpoint, this PubChem deposit counts one and a half times the control or more as active, and values a quarter to a half above the control carry no call in these data; other NCI protocols may use other cut-offs.

System: L1210 leukemia ip in BDF1 mice, survival T/C
Assay: NCI In Vivo Anticancer Drug Screen. Data for tumor model L1210 Leukemia (intraperitoneal) in B6D2F1 (BDF1) mice
Conditions: T/C endpoint: mean survival time, higher T/C = longer survival
[1] = dose: 400.0 mg/kg/injection, schedule: Q01DX001 (ip), vehicle: saline
[2] = dose: 200.0 mg/kg/injection, schedule: Q01DX001 (ip), vehicle: saline
[3] = dose: 400.0 mg/kg/injection, schedule: Q01DX009 (ip), vehicle: Klucel (hydroxypropylcellulose) (HPC)
[4] = dose: 400.0 mg/kg/injection, schedule: Q01DX001 (ip), vehicle: saline with Tween-80
[5] = dose: 400.0 mg/kg/injection, schedule: Q04DX002 (ip), vehicle: Klucel (hydroxypropylcellulose) (HPC)

**Q.** Which survivor count [1] does the source give for `CN1CCC(CO)CC1` here?
**A.** 1 of 4

**Q.** How did the survivor count (dose: 300.0 mg/kg/injection, schedule: Q01DX001 (ip), vehicle: other) turn out when `O=Nc1c(O)ccc2ncccc12` was run?
**A.** 2 of 6

**Q.** With `C=CC[n+]1ccccc1C(c1ccccc1)c1ccccc1` as the molecule, how does the survivor count (dose: 50.0 mg/kg/injection, schedule: Q04DX003 (ip), vehicle: saline with Tween-80) read?
**A.** 2 of 6

**Q.** What about the survivor count (dose: 100.0 mg/kg/injection, schedule: Q04DX003 (ip), vehicle: saline with Tween-80) of the same molecule?
**A.** 0 of 6

**Q.** What about the survivor count (dose: 200.0 mg/kg/injection, schedule: Q04DX003 (ip), vehicle: saline with Tween-80) of the same molecule?
**A.** 0 of 6

**Q.** And the survivor count (dose: 400.0 mg/kg/injection, schedule: Q04DX003 (ip), vehicle: saline with Tween-80)?
**A.** 0 of 6

**Q.** For `O/N=C/Cc1ccccc1`, which survivor count (dose: 400.0 mg/kg/injection, schedule: Q04DX002 (ip), vehicle: DMSO) is on record?
**A.** 0 of 3

**Q.** For `Nc1ncc2[nH]c(I)nc2n1`, which survivor count (dose: 10.0 mg/kg/injection, schedule: Q01DX001 (ip), vehicle: saline) is on record?
**A.** 3 of 6

**Q.** What about the survivor count (dose: 20.0 mg/kg/injection, schedule: Q01DX001 (ip), vehicle: saline) of the same molecule?
**A.** 3 of 6

**Q.** What about the survivor count (dose: 40.0 mg/kg/injection, schedule: Q01DX001 (ip), vehicle: saline) of the same molecule?
**A.** 0 of 6

**Q.** What about the survivor count (dose: 80.0 mg/kg/injection, schedule: Q01DX001 (ip), vehicle: saline) of the same molecule?
**A.** 0 of 6

**Q.** And the survivor count (dose: 100.0 mg/kg/injection, schedule: Q01DX001 (ip), vehicle: saline)?
**A.** 0 of 4

**Q.** And the survivor count [2]?
**A.** 0 of 4

**Q.** What about the survivor count [1] of the same molecule?
**A.** 0 of 4

**Q.** Which survivor count [2] does the source give for `CC1=CCC(=C(C)C)C1C(=O)NC1CCCCC1` (configuration not stated) here?
**A.** 0 of 6

**Q.** How did the survivor count [3] turn out when `Cc1nc2c(O)cccc2cc1CO` was run?
**A.** 6 of 6

**Q.** Which T/C (dose: 50.0 mg/kg/injection, schedule: Q04DX003 (ip), vehicle: saline) does the source give for `C=CCNC(=O)CCl` here?
**A.** 127 % of control

**Q.** And the T/C (dose: 100.0 mg/kg/injection, schedule: Q04DX003 (ip), vehicle: saline)?
**A.** 127 % of control

**Q.** And the survivor count (dose: 200.0 mg/kg/injection, schedule: Q04DX003 (ip), vehicle: saline)?
**A.** 2 of 6

**Q.** And the survivor count (dose: 400.0 mg/kg/injection, schedule: Q04DX003 (ip), vehicle: saline)?
**A.** 0 of 6

**Q.** How did the survivor count [4] turn out when `CCCCCCCCC1CCC2C3CCC4CC(C(=O)O)C(C(=O)O)CC4(C)C3CCC12C` (configuration not stated) was run?
**A.** 6 of 6

**Q.** Which results are given for `O=C1NC2(C(=O)O1)C1CC3CC(C1)CC2C3` (configuration not stated)?
**A.** survivor count (dose: 100.0 mg/kg/injection, schedule: Q01DX009 (ip), vehicle: alcohol): 3 of 6; survivor count (dose: 200.0 mg/kg/injection, schedule: Q01DX009 (ip), vehicle: alcohol): 1 of 6; survivor count (dose: 400.0 mg/kg/injection, schedule: Q01DX009 (ip), vehicle: alcohol): 1 of 6

**Q.** `O=C(O)c1ccc(OCCOc2ccc([N+](=O)[O-])cc2)c(Cl)c1` was tested. Which survivor count (dose: 400.0 mg/kg/injection, schedule: Q01DX001 (ip), vehicle: carboxymethylcellulose (CMC)) did it give?
**A.** 1 of 3

**Q.** What about the survivor count (dose: 400.0 mg/kg/injection, schedule: Q01DX009 (ip), vehicle: carboxymethylcellulose (CMC)) of the same molecule?
**A.** 0 of 6 and 1 of 3

**Q.** `C1CNC(NC23CC4CC(CC(C4)C2)C3)=N1` was tested. Which survivor count (dose: 200.0 mg/kg/injection, schedule: Q01DX009 (ip), vehicle: Klucel (hydroxypropylcellulose) (HPC)) did it give?
**A.** 0 of 6

**Q.** And the survivor count [3]?
**A.** 0 of 6

**Q.** `O=[N+]([O-])c1ccc(N/N=C/C(c2ccccc2)c2ccsc2)c([N+](=O)[O-])c1` (configuration not stated) was tested. Which survivor count [4] did it give?
**A.** 2 of 6

**Q.** For `C[C@]12CC[C@@H]3c4cc([N+]#N)c([O-])cc4CC[C@H]3[C@@H]1CCC2=O`, which survivor count (dose: 100.0 mg/kg/injection, schedule: Q01DX009 (ip), vehicle: Klucel (hydroxypropylcellulose) (HPC)) is on record?
**A.** 0 of 6

**Q.** What about the survivor count (dose: 200.0 mg/kg/injection, schedule: Q04DX002 (ip), vehicle: Klucel (hydroxypropylcellulose) (HPC)) of the same molecule?
**A.** 2 of 3

**Q.** And the survivor count [5]?
**A.** 0 of 3

**Q.** How did the survivor count (dose: 150.0 mg/kg/injection, schedule: Q01DX009 (ip), vehicle: Klucel (hydroxypropylcellulose) (HPC)) turn out when `c1ccc(C2(NC3=NCCO3)CCCCC2)cc1` was run?
**A.** 0 of 6

**Q.** And the survivor count (dose: 300.0 mg/kg/injection, schedule: Q01DX009 (ip), vehicle: Klucel (hydroxypropylcellulose) (HPC))?
**A.** 0 of 6

**Q.** What does the source list for `Cc1c(Cl)cccc1NC(=O)Nc1nccs1`?
**A.** survivor count (dose: 400.0 mg/kg/injection, schedule: Q01DX009 (ip), vehicle: saline with Tween-80): 3 of 3 and 6 of 6; survivor count (dose: 400.0 mg/kg/injection, schedule: Q04DX002 (ip), vehicle: saline with Tween-80): 1 of 3

**Q.** How did the survivor count [5] turn out when `Nc1cc(Nc2cccc(Br)c2)nc(N)n1` was run?
**A.** 0 of 3
